According to PubChem BioAssay AID493014 (National Center for Advancing Translational Sciences (NCATS), 2011):
The list shows a part of the results. The main result of the screen is listed elsewhere. These columns were measured beside it and carry no call. Most of these compounds were active or inconclusive in the main read-out, so they are no random draw. Potencies come from curve fits of mixed quality, noted in brackets.

Assay: qHTS Assay to Find Inhibitors of Chronic Active B-Cell Receptor Signaling
Details: ABC-DLBCL IkBa-CBG/CBR reporter, luminescence ratio (green luciferase fused to IkBa over red control in TMD8 lymphoma cells), 4 h
Procedure, shortened: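 TMD8 ABC-DLBCL cells carrying doxycycline-inducible green luciferase fused to IkappaBalpha plus unfused red luciferase were exposed to compounds (up to 46 uM) for 4 hrs at 37C. Activity came from the overlap-corrected green/red luminescence ratio.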

[1] = measured here: CBR red luminescence, cell number
[2] = measured here: IkBa-CBG green luminescence

Row | Structure (SMILES) | AC50 [1] | AC50 [2]
1 | CC1CCN(C(=O)CSc2nc(N)c3c4c(sc3n2)CN(C)CC4)CC1 | 3.55 µM [rising, single point] | 
2 | CC1CCc2sc(C(=O)N3CCC(C(N)=O)CC3)cc2C1 (configuration not stated) | 29.1 µM [falling, single point] | 
3 | O=C(NCc1ccc(Cl)s1)c1cc(COc2c(F)cccc2F)on1 | 35.5 µM [rising, single point] | 
4 | Cc1sc2nc(COC(=O)c3ccc(O)cc3)[nH]c(=O)c2c1C | 11.2 µM [falling, single point] | 
5 | O=[N+]([O-])/C=C/c1cn(Cc2ccc(F)cc2)c2ccccc12 | 35.5 µM [rising, single point] | 35.5 µM [falling, single point]
6 | COc1ccc(NC(=O)CCSc2ccc3ccccc3n2)cc1 | 10.3 µM [rising, partial curve] | 
7 | Cc1ccc(OCCCCN2CCC(C)CC2)c(Br)c1 | 32.6 µM [falling, single point] | 
8 | CC1=C(C(=O)Nc2cccc(C(=O)NC3CCCCC3C)c2)SCCO1 (configuration not stated) | 10 µM [falling, partial curve] | 
9 | CCOC(=O)N1CCN(C(=O)CSc2nc3ccccc3c(=O)n2-c2ccccc2)CC1 | 0.501 µM [rising, full curve, poor fit] | 
10 | C/C(=N\Nc1cccc(C(F)(F)F)c1)c1ccc(O)cc1 | 2.24 µM [rising, full curve, poor fit] | 
11 | CCCN1CCc2c(sc(NC(=O)c3ccc(S(=O)(=O)N4CCCC4)cc3)c2C(N)=O)C1 | 11.2 µM [rising, partial curve, poor fit] | 
12 | CC1(C)CC(=O)C(=Cc2cn(CCC#N)nc2-c2ccc(Cl)cc2)C(=O)C1 | 23.1 µM [rising, single point] | 
13 | O=C(N/N=C/c1ccco1)c1ccccc1OCc1ccccc1Cl | 29.1 µM [falling, single point] | 
14 | N#CC12CCCCC1CC1CCCCC1(C#N)N2Cc1ccccn1 (configuration not stated) | 3.55 µM [falling, partial curve, poor fit] | 
15 | CCOC(=O)c1c(-c2ccccc2)csc1NC(=O)c1cc(S(=O)(=O)N2CCOCC2)ccc1C | 6.51 µM [falling, single point] | 
16 | Cc1c(NS(C)(=O)=O)cccc1-c1nc2cccnc2s1 | 3.16 µM [rising, full curve, poor fit] | 
17 | OC(COc1ccc2c(c1)OCO2)CN1CCCC1 (configuration not stated) | 0.398 µM [falling, partial curve, poor fit] | 
18 | Cc1nn(CC2CC2)c(=O)n1-c1ccc(Cl)cc1 | 8.91 µM [rising, partial curve] | 
19 | Cc1ccc(NC2=C(N3CCCCC3)C(=O)c3ccccc3C2=O)cc1 | 22.4 µM [falling, single point] | 
20 | CCOc1ccc(OCC)c(NC(=O)CCS(=O)(=O)c2ccc(Br)s2)c1 | 0.259 µM [rising, full curve, poor fit] | 
21 | CCN(CC)CCN1C(=O)C(=O)/C(=C(/O)c2ccc(OC)cc2)C1c1cccs1 (configuration not stated) | 35.5 µM [falling, single point] | 
22 | Cc1nc(NNC(=O)c2ccccc2)cc(-c2ccccc2)n1 | 29.1 µM [falling, single point] | 

A second format for part of the listing above.
Row,Structure (SMILES),AC50 [1],AC50 [2]
19,Cc1ccc(NC2=C(N3CCCCC3)C(=O)c3ccccc3C2=O)cc1,"22.4 µM [falling, single point]",
20,CCOc1ccc(OCC)c(NC(=O)CCS(=O)(=O)c2ccc(Br)s2)c1,"0.259 µM [rising, full curve, poor fit]",
21,CCN(CC)CCN1C(=O)C(=O)/C(=C(/O)c2ccc(OC)cc2)C1c1cccs1 (configuration not stated),"35.5 µM [falling, single point]",

Remaining list, next part

Row | Structure (SMILES) | AC50 [1] | AC50 [2]
23 | Cc1ccc(CN2C(=O)CCC2C(=O)NCCCN2CCCCC2C)cc1 (configuration not stated) | 1.26 µM [falling, partial curve, poor fit] | 
24 | O=C(NC(=O)c1cccc(F)c1)OC[C@@H]1CCCN2CCCC[C@H]12 | 25.9 µM [rising, single point] | 
25 | O=C(Cc1coc(-c2ccc(F)cc2)n1)Nc1ccccc1 | 12.6 µM [falling, single point] | 
26 | CN(C)CCn1c(NCc2ccc3c(c2)OCO3)nc2ccccc21 | 17.8 µM [falling, single point] | 
27 | COc1ccc(C(C)=O)cc1CSc1nc2nc(C)cc(C)n2n1 | 12.6 µM [rising, partial curve, poor fit] | 
28 | COc1ccc(CC(=O)Nc2cccc(SC)c2)cc1OC | 0.891 µM [rising, full curve, poor fit] | 
29 | CN1CCC(N(C)C(=O)/C=C/c2cn(-c3ccccc3)nc2-c2cccs2)CC1 | 35.5 µM [falling, single point] | 
30 | CSc1sc(C(=O)NCC2CC2)c(-c2cccs2)c1C#N | 5.62 µM [rising, single point] | 
31 | N=c1c2c3c(sc2ncn1CCCN1CCOCC1)CCCCC3 | 18.4 µM [rising, partial curve, poor fit] | 
32 | O=C(NNC(=O)c1ccccc1OCc1ccc(F)cc1)c1ccccc1O | 11.2 µM [falling, partial curve, poor fit] | 
33 | Cc1ccc(NC(=O)c2ccc(NCc3ccco3)c([N+](=O)[O-])c2)cc1Cl | 0.651 µM [falling, full curve, poor fit] | 
34 | O=C(COC(=O)c1cc([N+](=O)[O-])ccc1N1CCOCC1)NC1CCCCC1 | 5.8 µM [rising, partial curve] | 
35 | Nc1ncnc2c1ncn2[C@@H]1O[C@H](CO)[C@@H](O)[C@H]1O | 18.4 µM [rising, partial curve] | 
36 | Cc1ccc(NC(=O)c2ccc(Cl)cc2Cl)cc1O | 3.55 µM [rising, partial curve, poor fit] | 
37 | O=c1[nH]c(-c2ccccc2)c(-c2ccccc2)o1 | 2 µM [rising, partial curve] | 
38 | Cc1cc(Cl)ccc1NC(=S)NCc1ccc(F)cc1 | 20 µM [rising, single point] | 
39 | CCc1ccc(C(=O)COc2ccc(NC(C)=O)cc2)cc1 | 4.11 µM [rising, single point] | 
40 | CCOc1ccc(C(CC(=O)O)NC(=O)C(c2ccccc2)c2ccccc2)cc1OC (configuration not stated) |  | 29.1 µM [rising, partial curve, poor fit]
41 | CC(C)Oc1ccc(CNC(=O)c2ccc3c(c2)N(C)CCS3)cc1 | 11.2 µM [falling, partial curve] | 
42 | S=C(NCc1ccccc1)Nc1ccc(Oc2ccccc2)cc1 | 35.5 µM [falling, single point] | 
43 | Cc1ccc(NC(=O)c2noc3c2CCCCC3)cc1 | 10 µM [falling, partial curve] | 
44 | Cc1ccc(-c2noc(-c3ccccc3C(=O)N3CCOCC3)n2)cc1 | 23.1 µM [rising, single point] | 

Row | Structure (SMILES) | AC50 [1] | AC50 [2]
45 | O=C(N/N=C/C(Br)=C/c1ccccc1)C1CC1 | 1 µM [rising, full curve, poor fit] | 
46 | CN(C)/N=C/c1cn(-c2ccccc2)nc1-c1cccnc1 | 11.2 µM [falling, partial curve, poor fit] | 
47 | CSc1nc2c(sc3ccccc32)c(=O)n1Cc1ccc(C)cc1 | 1.12 µM [falling, full curve] | 
48 | COc1ccc(-c2n[nH]c(=S)n2-c2ccc(C)cc2)cc1OC | 35.5 µM [rising, single point] | 
49 | C/C(=N\NC(=O)c1ccccc1)c1cccc(Br)c1 | 15.8 µM [falling, partial curve] | 
50 | CCc1ccc(/C=C2/C(=O)N(CC)C(=S)N2C)s1 | 5.17 µM [rising, single point] | 
51 | COC(=O)c1ccccc1NC(=O)c1sc(Cl)nc1C | 35.5 µM [falling, single point] | 
52 | CCOC(=O)C1(Cc2cccc(OC)c2)CCN(C2CCOCC2)CC1 | 35.5 µM [falling, single point] | 
53 | CC/C(=N\NC(=S)Nc1cccc(C)c1)c1ccccc1 | 7.94 µM [falling, partial curve, poor fit] | 5.01 µM [falling, single point]
54 | O=[N+]([O-])c1ccc(CS(=O)(=O)N2CCN(c3ccccc3)CC2)cc1 | 0.178 µM [rising, full curve, poor fit] | 
55 | COC(=O)c1ccc(N=C2SCC(=O)N2C)cc1 | 35.5 µM [rising, single point] | 
56 | CC(=O)N1N=C(c2c(-c3ccccc3)c3cc(C)ccc3[nH]c2=O)CC1c1ccco1 (configuration not stated) | 20.6 µM [falling, single point] | 
57 | C/C(N)=C(/C#N)C(=O)CSc1cc(Cl)ccc1Cl | 6.51 µM [rising, partial curve, poor fit] | 
58 | C[C@@]12C(=O)N(c3cccc(Cl)c3)C(=O)N1[C@H](c1ccc(Cl)cc1)[C@@H]1C(=O)N(C3CCCCC3)C(=O)[C@@H]12 | 11.6 µM [falling, partial curve, poor fit] | 
59 | Cc1nc2ccccc2c2oc(C(=O)N3CCN(c4ccc([N+](=O)[O-])cc4)CC3)cc12 | 3.55 µM [falling, partial curve, poor fit] | 
60 | CCN(Cc1ccccc1)Cc1nc(CCc2ccccc2)no1 | 0.891 µM [rising, full curve, poor fit] | 
61 | Cc1ccc(NC(=O)CNc2cccc(S(=O)(=O)N3CCOCC3)c2)cc1F | 9.2 µM [falling, partial curve, poor fit] | 
62 | O=C1CCCN1c1ccc(C(=O)N(Cc2nnc(-c3ccccc3Cl)o2)C2CC2)cc1 | 10.3 µM [falling, partial curve, poor fit] | 
63 | O=C(NC(Cc1ccccc1)C(=O)O)/C(=C\c1ccc(Br)cc1)NC(=O)c1ccc(Br)o1 (configuration not stated) | 6.31 µM [falling, single point] | 
64 | O=C(CSc1nc(=O)n(Cc2ccncc2)c2c1CCC2)Nc1ccc(F)cc1F | 7.94 µM [rising, partial curve, poor fit] | 
65 | CCN(CC)c1nc(C#N)cc(-c2ccc(OC)cc2)n1 | 2.82 µM [rising, full curve] | 

As entered above:
`COc1ccc(C(C)=O)cc1CSc1nc2nc(C)cc(C)n2n1` – AC50 [1]: 12.6 µM [rising, partial curve, poor fit]
`CCOc1ccc(C(CC(=O)O)NC(=O)C(c2ccccc2)c2ccccc2)cc1OC` (configuration not stated) – AC50 [2]: 29.1 µM [rising, partial curve, poor fit]
